Results published in PubChem BioAssay AID2685 (National Center for Advancing Translational Sciences (NCATS), 2010).
This is one part of the list. Shown are side measurements of this screen, not its main read-out; they come without a call. The list favours compounds with an active or inconclusive main result. The note in brackets gives the kind of curve behind each potency; many fits are weak.

Assay: qHTS Assay for Lipid Storage Modulators in Drosophila S3 Cells;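 for cell number change: cells counted by Cell Tracker Red CMTPX staining in the red channel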
Details: BODIPY lipid droplet fluorescence, 18-24 h; for cell number change: measured here: cell count max response, cells fed with added oleic acid
How it was run: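 Laser-scanning cytometry quantifies lipid droplet accumulation (500–530 nm total intensity; droplet/cell object ratio) in oleic acid-fed (400 uM added) Drosophila S3 cells treated with a concentration series. 20 uM Triacsin C defined 100% inhibition.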

[1] = measured here: lipid fluorescence (Fed channel) AC50, cells fed with added oleic acid
[2] = measured here: cell number channel AC50, cells fed with added oleic acid

Row | SMILES | cell number change | AC50 [1] | AC50 [2]
1 | Cc1nnc(NN)n(N)c1=O | 3.41% | 0.00461 µM [falling, full curve, poor fit] | –
2 | CC(=O)c1cc(C(=O)c2ccccc2)sc1Nc1ccccc1 | -13.6% | – | –
3 | COc1ccc(C(=O)N(Cc2nc(-c3ccc(C)cc3)no2)C(C)C)cc1OC | 43.1% | 9.2 µM [rising, partial curve] | 11.6 µM [rising, partial curve, poor fit]
4 | CN1CC(C(=O)Nc2ccc(F)c(Cl)c2)CC1=O (stereo not drawn) | 1.57% | 29.1 µM [rising, partial curve, poor fit] | –
5 | COc1ccc(C2(O)CCN(Cc3nnnn3Cc3ccc(C)cc3)CC2)cc1 | 26% | 29.1 µM [rising, single point] | –
6 | COc1ccc(OCC(=O)Nc2ccc(NC(=O)c3ccccc3Cl)c(OC)c2)cc1 | 10.3% | – | –
7 | O=C(NC(=O)c1ccccc1O)c1ccc2c(c1)CCO2 | -9.03% | – | –
8 | CCOC(=O)c1[nH]c2ccc(OC)cc2c1NC(=S)N1CCN(c2cccc(C)c2C)CC1 | -70.3% | – | 20.6 µM [falling, single point]
9 | N#C/C(=C\c1ccccn1)c1ccccn1 | -1.39% | 6.51 µM [rising, partial curve] | 0.411 µM [rising, full curve, poor fit]
10 | COc1ccc(NC(=O)CSc2nnc(Cc3cccs3)n2-c2ccc(C)cc2)cc1 | – | 0.58 µM [rising, single point] | –
11 | COc1ccc(C)cc1NC(=O)CSc1nnnn1C1CCCC1 | 8.97% | 29.1 µM [falling, single point] | –
12 | COC(=O)C1=C(C(=O)OC)[C@@H]2N(C)c3ccc(OC)cc3[C@@]23C[C@@H](C(=O)OC)N(S(=O)(=O)c2ccc(OC)cc2)C3=N1 | 18% | 25.9 µM [rising, single point] | –
13 | Cc1cccc(-n2c(SCCC(=O)O)nnc2-c2cccs2)c1C | -9.74% | 0.146 µM [falling, partial curve, poor fit] | 0.0366 µM [falling, full curve]
14 | CCN(CC)CCCn1c2c(c(SCC(=O)Nc3nc(C)cs3)nc1=O)CCC2 | 1% | – | –
15 | Cc1ccc(NC(=O)c2cc(-c3cc(C)c(C)cc3O)n[nH]2)cc1C | 2.7% | – | 2.91 µM [rising, single point]
16 | NC(=O)COC(=O)CNC(=O)c1sc2ccccc2c1Cl | 25% | – | –
17 | C=Cc1ccc(Cn2c(=O)n(C)c(=O)c3sccc32)cc1 | -22.5% | – | –
18 | CCC(C)NC(=O)CN(c1cc(Cl)ccc1OC)S(C)(=O)=O (stereo not drawn) | -31.9% | – | 29.1 µM [falling, single point]
19 | COc1cc(C(=O)Nc2nccs2)cc(OC)c1OC | 6.68% | 3.26 µM [rising, partial curve] | –
20 | CC1(NC(=O)NCc2ccccc2)CCS(=O)(=O)C1 (stereo not drawn) | – | 0.651 µM [falling, single point] | –
21 | CCOc1ccc(Br)cc1S(=O)(=O)Nc1ccc(NC(=O)c2ccccc2F)cc1 | -4.91% | – | –

Full records as entered above:
COc1ccc(OCC(=O)Nc2ccc(NC(=O)c3ccccc3Cl)c(OC)c2)cc1 as listed: cell number change: 10.3%
CCC(C)NC(=O)CN(c1cc(Cl)ccc1OC)S(C)(=O)=O (stereo not drawn) as listed: cell number change: -31.9%; AC50 [2]: 29.1 µM [falling, single point]
O=C(NC(=O)c1ccccc1O)c1ccc2c(c1)CCO2 as listed: cell number change: -9.03%
COc1ccc(NC(=O)CSc2nnc(Cc3cccs3)n2-c2ccc(C)cc2)cc1 as listed: AC50 [1]: 0.58 µM [rising, single point]

Remaining list, next part

Row | SMILES | cell number change | AC50 [1] | AC50 [2]
22 | Cc1ccc(S(=O)(=O)NCC(=O)OCC(=O)c2ccc(Br)s2)cc1 | 18.3% | – | –
23 | COc1ccc(-c2c(C)nn3c(-c4ccccc4)cc(C)nc23)cc1 | -49.9% | – | –
24 | CCN(CC)S(=O)(=O)c1cc(C(=O)OCC(=O)NC(=O)c2cccn2C)ccc1C | 21.7% | 1.46 µM [rising, partial curve] | –
25 | COc1ccc(C)cc1S(=O)(=O)N(CC(=O)NC1CCCC1)c1ccc(F)cc1 | 4.5% | – | 6.51 µM [rising, partial curve, poor fit]
26 | Cc1cccc(N2CC(C(=O)Nc3ccc4c(c3)OCCO4)CC2=O)c1C (stereo not drawn) | 37.8% | – | 25.9 µM [rising, partial curve]
27 | O=C(CN1CCN(Cc2ccccc2Cl)CC1)N/N=C/c1ccco1 | 1.81% | – | –
28 | CCOC(=O)N1CCN(C(=O)CSc2nnc(-c3cccc(OC)c3)o2)CC1 | 14.3% | 5.17 µM [falling, single point] | –
29 | O=C(c1ccc(NC2=NC3CS(=O)(=O)CC3S2)cc1)N1CCN(c2ccc(F)cc2)CC1 (stereo not drawn) | 8.43% | 0.731 µM [falling, full curve] | –
30 | COc1cc(/C=C/C(=O)OCC(=O)N(C)CC(=O)Nc2ccc(F)cc2)ccc1OC(F)F | 17.3% | 0.184 µM [rising, full curve, poor fit] | –
31 | Cc1cc(N/N=C(/CCC(=O)O)C(=O)O)nc2ccccc12 | -100% | – | 29.1 µM [falling, partial curve, poor fit]
32 | O=C(Nc1nnc(C2=COCCO2)o1)c1cccc(C(F)(F)F)c1 | -17.4% | 29.1 µM [falling, single point] | –
33 | COc1ccc(OCc2nnc3n2N=C(c2ccc(Br)cc2)CS3)cc1 | -7.69% | – | –
34 | CCOC(=O)N1CCN(c2c(N3CCN(c4cccc(C)c4C)CC3)c(=O)c2=O)CC1 | -6.74% | 2.06 µM [falling, partial curve, poor fit] | –
35 | Cc1cc(C(=O)OCC(=O)Nc2c(Cl)cccc2C(F)(F)F)c(C)o1 | -5.53% | 29.1 µM [rising, partial curve, poor fit] | –
36 | COc1cccc(/C=C/C(=O)N2CC(C)OC(C)C2)c1OC (stereo not drawn) | -9.68% | 0.164 µM [falling, full curve] | –
37 | CCCCNC(=O)c1nn2cc(Br)cnc2c1Br | 32.8% | – | 29.1 µM [rising, single point]
38 | O=C(O)CCCN1C(=O)/C(=C\c2ccccc2OCc2ccccc2)SC1=S | 15.4% | – | 2.91 µM [rising, single point]
39 | COCC(=O)N1CCC(Oc2ccc(C(=O)N(C)Cc3nccs3)cc2)CC1 | 6.07% | 14.6 µM [rising, partial curve] | –
40 | COc1ccc(Cn2nnnc2CN2CCN(c3ccc(OC)cc3)CC2)cc1 | 2.26% | 2.06 µM [rising, partial curve] | –
41 | C/C(=N/NC(=O)CN1CCN(S(=O)(=O)c2ccc(Br)cc2)CC1)c1cccnc1 | 8.89% | 1.64 µM [rising, partial curve, poor fit] | 6.51 µM [rising, single point]
42 | CCOC(=O)N1CCN(C(=O)CCc2ccc(S(=O)(=O)NCCc3ccccc3)cc2)CC1 | -34% | 0.82 µM [rising, partial curve] | 14.6 µM [falling, partial curve, poor fit]

Row | SMILES | cell number change | AC50 [1] | AC50 [2]
43 | COc1cccc(NC(=O)c2cc(OC)c(OC)c(OC)c2Br)c1 | 8.91% | 1.64 µM [rising, partial curve] | –
44 | CCC(C)NC(=O)Cc1c(C)c2cc3c(cc2oc1=O)OC(C)(C)CC3 (stereo not drawn) | – | – | 0.164 µM [rising, full curve, poor fit]
45 | C=CCOc1c(Br)cc(/C=C2/C(=O)ON=C2C)cc1OC | 22.7% | – | –
46 | CC(C)Oc1ccc(C(=O)Nc2nc3ccccc3[nH]2)cc1 | -10.3% | – | 0.291 µM [falling, partial curve, poor fit]
47 | CSc1ccc(CCNC(=O)c2cc(-c3ccccc3)c(N3CCOCC3)s2)cc1 | 16.9% | 29.1 µM [rising, single point] | –
48 | O=C1CN(c2nc(-c3cccs3)nc3sc4c(c23)CCCC4)CCN1 | – | 0.731 µM [falling, full curve] | –
49 | Cc1cc(C(=O)CN2C(=O)NC3(CCCCC3)C2=O)c(C)n1Cc1ccco1 | 19.8% | 14.6 µM [falling, partial curve] | –
50 | Cc1nn(CC(=O)NC2CCCC2)c(C)c1[N+](=O)[O-] | 13% | 32.6 µM [rising, single point] | –
51 | Cc1ccc(C(=O)c2c(C)oc3c2C(=O)C(=O)c2ccccc2-3)cc1 | -86.6% | – | –
52 | O=C(c1ccc(Cl)c(S(=O)(=O)N2CCCC2)c1)N1CCCCC1 | 31% | – | 11.2 µM [rising, partial curve, poor fit]
53 | Ic1ccc(N2CCN(Cc3c[nH]c4ncccc34)CC2)cc1 | -55.6% | 29.1 µM [falling, single point] | 29.1 µM [falling, single point]
54 | Cc1ccc(C2=N/C(=C\c3ccc(F)cc3)C(=O)N2)cc1 | -26.2% | 29.1 µM [falling, single point] | –
55 | CCOc1ncccc1C(=O)OCC(=O)NCc1ccc2c(c1)OCO2 | – | 29.1 µM [rising, single point] | 0.517 µM [rising, full curve, poor fit]
56 | CC1=NN(c2ccc(Cl)cc2)C(=O)C1C(c1cccc(O)c1)c1c(C)[nH]n(-c2ccc(Cl)cc2)c1=O (stereo not drawn) | 8.53% | – | –
57 | Cc1ccc(-n2c(SCC(=O)NCC3CCCO3)nnc2-c2ccoc2C)cc1 (stereo not drawn) | 0.832% | 29.1 µM [falling, single point] | –
58 | COC(=O)c1cc(=O)c2c(C)nc(C(Cl)(Cl)Cl)nc2[nH]1 | 61.8% | 13 µM [rising, partial curve] | –
59 | O=[N+]([O-])c1cc(S(=O)(=O)O)cc([N+](=O)[O-])c1NN(c1ccccc1)c1ccccc1 | 7.44% | 5.17 µM [rising, partial curve] | –
60 | Cc1ccc(S(=O)(=O)/C(C#N)=C/c2c(N3CCC(C(N)=O)CC3)nc3c(C)cccn3c2=O)cc1 | 25.8% | 0.13 µM [rising, full curve, poor fit] | –
61 | O=C(/C=C/c1ccccc1)N1CCN(CC(O)COc2ccccc2)CC1 (stereo not drawn) | 46.8% | 5.8 µM [rising, single point] | 5.8 µM [rising, partial curve]
62 | Cc1ccsc1/C=N/NC(=O)CC(=O)NCC(C)C | 22.9% | 16.4 µM [rising, partial curve, poor fit] | –
